Article PMC12552473
No constants are given. Whether binding was seen depends on the method and setting. Binding seen in cells or lysates may run through a third protein. A yes stands for co-enrichment or nearness to the bait. Other partners may have been found. Sequences can lack the tags named with a protein.

Amino acid sequences for entries named in this document (tags omitted).
UniProt Q16665: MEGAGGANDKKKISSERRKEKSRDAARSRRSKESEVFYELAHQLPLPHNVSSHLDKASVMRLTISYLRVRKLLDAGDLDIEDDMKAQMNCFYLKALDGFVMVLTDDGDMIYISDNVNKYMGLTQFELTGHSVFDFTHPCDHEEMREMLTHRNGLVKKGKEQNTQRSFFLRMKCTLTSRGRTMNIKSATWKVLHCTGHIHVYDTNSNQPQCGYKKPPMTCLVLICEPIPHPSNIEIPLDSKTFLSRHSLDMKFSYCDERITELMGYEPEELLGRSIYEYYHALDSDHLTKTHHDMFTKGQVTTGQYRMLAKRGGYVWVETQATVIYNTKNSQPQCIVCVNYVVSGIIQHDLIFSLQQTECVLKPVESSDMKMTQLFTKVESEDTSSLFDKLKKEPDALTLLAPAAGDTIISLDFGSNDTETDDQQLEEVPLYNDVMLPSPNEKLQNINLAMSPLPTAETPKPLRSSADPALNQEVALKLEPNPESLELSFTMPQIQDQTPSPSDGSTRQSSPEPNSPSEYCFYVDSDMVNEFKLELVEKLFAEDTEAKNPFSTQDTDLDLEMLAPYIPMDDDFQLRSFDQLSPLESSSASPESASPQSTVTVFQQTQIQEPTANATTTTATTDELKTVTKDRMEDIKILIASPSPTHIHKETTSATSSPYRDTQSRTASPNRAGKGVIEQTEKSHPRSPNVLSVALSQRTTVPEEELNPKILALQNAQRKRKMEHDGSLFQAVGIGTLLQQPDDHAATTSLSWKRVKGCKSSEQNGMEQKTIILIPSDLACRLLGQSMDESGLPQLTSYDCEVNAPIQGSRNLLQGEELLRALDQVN

Target: T1, Flag-tagged UHRF1, stably overexpressed in SKOV3 cells (UniProt Q96T88)
T1 sequence: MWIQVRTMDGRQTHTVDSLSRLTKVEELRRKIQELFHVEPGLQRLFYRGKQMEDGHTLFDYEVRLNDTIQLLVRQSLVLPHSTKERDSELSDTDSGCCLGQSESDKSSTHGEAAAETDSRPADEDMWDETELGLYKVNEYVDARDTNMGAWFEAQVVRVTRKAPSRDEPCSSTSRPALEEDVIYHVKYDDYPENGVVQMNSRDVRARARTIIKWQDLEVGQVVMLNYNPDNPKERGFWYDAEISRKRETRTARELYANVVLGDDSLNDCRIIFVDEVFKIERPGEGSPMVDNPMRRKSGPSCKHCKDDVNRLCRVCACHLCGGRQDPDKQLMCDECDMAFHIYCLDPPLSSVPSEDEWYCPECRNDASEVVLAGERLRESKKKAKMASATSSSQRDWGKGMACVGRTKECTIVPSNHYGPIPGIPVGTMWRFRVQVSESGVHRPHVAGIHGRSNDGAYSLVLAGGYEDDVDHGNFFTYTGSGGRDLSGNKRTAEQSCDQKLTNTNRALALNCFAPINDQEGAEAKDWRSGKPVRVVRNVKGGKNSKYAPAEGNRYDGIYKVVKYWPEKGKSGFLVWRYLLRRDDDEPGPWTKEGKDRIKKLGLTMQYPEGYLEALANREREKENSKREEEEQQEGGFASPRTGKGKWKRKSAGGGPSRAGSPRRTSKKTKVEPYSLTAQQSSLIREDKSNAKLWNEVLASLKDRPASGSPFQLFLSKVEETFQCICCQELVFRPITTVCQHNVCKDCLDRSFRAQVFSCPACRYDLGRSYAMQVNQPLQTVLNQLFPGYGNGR
Assay: affinity purification with mass spectrometry; pull-down with a Flag antibody from UHRF1-overexpressing SKOV3 cells under hypoxic conditions, then mass spectrometry

binding: binds
Substance: Hypoxia-inducible factor 1 α (HIF-1α), endogenous in SKOV3 cells (from UniProt Q16665 1-826)
